# Data as given in PubChem BioAssay AID1224826 (NIAID, 2016)
# Assay: 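Knock-downs that raise or lower Tnf reporter signal after endotoxin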 (primary screen)
# Cell system: RAW264.7 G9 macrophages from mouse bearing reporters for p65 (GFP) and the Tnf promoter (mCherry)
# Knock-down reagent: siRNA pool against mouse genes, 100 nM
# Duration: 16 h of LPS stimulation, after 2 days of siRNA transfection
# Conditions: bacterial lipopolysaccharide (Salmonella minnesota R595), 10 ng/ml
# Measurement: 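Imaged Tnf reporter mCherry in nuclei, minus background, normalised per plate to the median and expressed as robust z-scores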
# Reading the numbers: Tnf reporter robust z-score: higher = stronger Tnf promoter reporter signal after LPS; Tnf reporter intensity: higher = stronger Tnf promoter reporter signal
# Hit rule: 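a well counts as active at a score of -1.3 or below (Tlr4 knock-down control median) or above 3 (raised signal); controls and wells holding fewer than 50 cells are excluded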
# Meaning of the calls: active = Tnf reporter clearly lowered or raised; inactive = no clear change in Tnf reporter
# Shown is an unselected part of about 17,000 reagents. About 1,110 of them (6.6%) were called active. 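Active means lowered or raised reporter signal; replicate intensities are raw and not normalised per plate.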
target,Tnf reporter robust z-score,fewer than 50 cells in well,"Tnf reporter intensity, replicate 1","Tnf reporter intensity, replicate 2",activity call
Msantd2,-0.03,enough cells in well,142,277,inactive
Vps45,-0.71,enough cells in well,83.7,73.5,inactive
Gcfc2,-0.36,enough cells in well,148,147,inactive
Cd63,-0.3,enough cells in well,208,200,inactive
Elmod1,-0.2,enough cells in well,166,61.1,inactive
Rnpep,-0.12,enough cells in well,337,169,inactive
Itga5,0.57,enough cells in well,256,200,inactive
Socs3,0.29,enough cells in well,285,255,inactive
Trim56,-0.3,enough cells in well,167,124,inactive
Parp12,-0.01,enough cells in well,121,82.7,inactive
Or8k16,0.97,enough cells in well,253,197,inactive
Wt1,-0.14,enough cells in well,230,205,inactive
Adora1,-1.43,enough cells in well,110,156,active
Ercc6l2,0.53,enough cells in well,327,86.1,inactive
Map3k21,1.75,enough cells in well,165,252,inactive
Eppin,0.8,enough cells in well,129,124,inactive
Thoc5,-0.94,enough cells in well,195,75.9,inactive
Usp45,1.38,enough cells in well,300,53.5,inactive
Kcnq3,0.97,enough cells in well,305,209,inactive
Gapdhs,-1.23,enough cells in well,142,81.9,inactive
Plag1,-0.18,enough cells in well,221,189,inactive
Or51a24,,fewer than 50 cells per well; well left out of calls,24.2,49.1,inactive
Med17,-0.97,enough cells in well,159,135,inactive
Chrnb3,0.27,enough cells in well,292,204,inactive
Rsph9,0.38,enough cells in well,240,52.5,inactive
Or4c121,1.05,enough cells in well,212,237,inactive
Apoa5,1.43,enough cells in well,283,216,inactive
H6pd,2.41,enough cells in well,445,298,inactive
Tnpo2,,fewer than 50 cells per well; well left out of calls,60.8,49.4,inactive
Adam24,0.45,enough cells in well,272,182,inactive
Mthfd1l,-1.34,enough cells in well,146,67.5,active
Hdc,0.87,enough cells in well,253,256,inactive
Or4c109,0.35,enough cells in well,205,172,inactive
Abr,-0.87,enough cells in well,94.8,130,inactive
Ubn2,0.2,enough cells in well,220,164,inactive
Kctd6,0.62,enough cells in well,240,105,inactive
Wbp11,,fewer than 50 cells per well; well left out of calls,77.2,69.2,inactive
Prrc1,,fewer than 50 cells per well; well left out of calls,141,39,inactive
Cdr2,0.04,enough cells in well,222,238,inactive
Aldh1a3,-1.31,enough cells in well,78.7,112,active

Entries above whose target name begins with A or a (5):
target,Tnf reporter robust z-score,fewer than 50 cells in well,"Tnf reporter intensity, replicate 1","Tnf reporter intensity, replicate 2",activity call
Adora1,-1.43,enough cells in well,110,156,active
Apoa5,1.43,enough cells in well,283,216,inactive
Adam24,0.45,enough cells in well,272,182,inactive
Abr,-0.87,enough cells in well,94.8,130,inactive
Aldh1a3,-1.31,enough cells in well,78.7,112,active
